# Results reported in article PMC5669913.
# By UniProt entry, the sequences of proteins in these tests, tags left out. Residues count along the entry.
# UniProt O00220, residues 24-468: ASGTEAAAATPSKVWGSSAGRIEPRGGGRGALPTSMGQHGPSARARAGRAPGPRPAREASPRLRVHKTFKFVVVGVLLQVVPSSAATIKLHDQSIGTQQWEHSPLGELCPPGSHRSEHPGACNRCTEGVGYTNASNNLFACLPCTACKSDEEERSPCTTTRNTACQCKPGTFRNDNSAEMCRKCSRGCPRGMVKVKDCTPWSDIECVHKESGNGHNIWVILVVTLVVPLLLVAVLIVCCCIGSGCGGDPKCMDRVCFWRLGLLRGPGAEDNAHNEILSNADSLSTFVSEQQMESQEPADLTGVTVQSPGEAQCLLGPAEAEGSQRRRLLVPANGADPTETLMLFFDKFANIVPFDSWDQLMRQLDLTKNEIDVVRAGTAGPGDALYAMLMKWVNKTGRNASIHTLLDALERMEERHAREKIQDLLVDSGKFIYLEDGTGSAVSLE
# No constants are given. Whether binding was seen depends on the method and setting. Binding seen in cells or lysates may run through a third protein. Some binding calls cover weakened binding; strength is not graded here.
# Molecular target: T1, MARCH-8, a member of the membrane-associated RING-CH (MARCH) ubiquitin ligase family (human (endogenous in HCT116 and RKO)) (UniProt Q5T0T0)
# T1 sequence: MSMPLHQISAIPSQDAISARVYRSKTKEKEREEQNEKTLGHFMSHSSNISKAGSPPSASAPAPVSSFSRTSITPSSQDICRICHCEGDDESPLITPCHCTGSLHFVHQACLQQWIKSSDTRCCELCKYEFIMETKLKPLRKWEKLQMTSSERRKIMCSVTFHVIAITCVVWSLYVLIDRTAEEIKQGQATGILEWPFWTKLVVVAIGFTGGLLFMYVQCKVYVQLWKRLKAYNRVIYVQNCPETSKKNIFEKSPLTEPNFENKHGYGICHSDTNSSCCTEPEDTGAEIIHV
# Assay: co-IP; cell lysates (20 mM Tris-HCl pH 7.6, 150 mM NaCl, 1 mM EDTA, 0.5% NP-40, 10% glycerol) incubated 12 h at 4°C with primary antibodies or IgG, then protein A/G agarose 4 h, washed 3 times with RIPA buffer, western blot; HCT116 and RKO cells, with NDRG1 over-expression or knock-down and their controls
substance,measurement,value
death receptor 4 (from UniProt O00220 24-468),binding,binds
